In doi:10.1101/438713:

Tests used:
Experiment in all cases: FRET or BRET
[1] = target: PvdJ-eGFP (Pseudomonas aeruginosa PAO1)
[2] = target: eGFP-PvdL (Pseudomonas aeruginosa PAO1)
[3] = target: PvdI-eGFP (Pseudomonas aeruginosa PAO1)
[4] = target: eGFP-PvdD (Pseudomonas aeruginosa PAO1) (UniProt Q9I182)
[5] = target: PvdJ-mCherry (Pseudomonas aeruginosa PAO1)
[6] = target: mCherry-PvdD (Pseudomonas aeruginosa PAO1)

Measured: binding

B1: PvdA-mCherry (enzyme, UniProt Q51548 1-443)
chain: MTQATATAVVHDLIGVGFGPSNIALAIALQERAQAQGALEVLFLDKQGDYRWHGNTLVSQSELQISFLKDLVSLRNPTSPYSFVNYLHKHDRLVDFINLGTFYPCRMEFNDYLRWVASHFQEQSRYGEEVLRIEPMLSAGQVEALRVISRNADGEELVRTTRALVVSPGGTPRIPQVFRALKGDGRVFHHSQYLEHMAKQPCSSGKPMKIAIIGGGQSAAEAFIDLNDSYPSVQADMILRASALKPADDSPFVNEVFAPKFTDLIYSREHAERERLLREYHNTNYSVVDTDLIERIYGVFYRQKVSGIPRHAFRCMTTVERATATAQGIELALRDAGSGELSVETYDAVILATGYERQLHRQLLEPLAEYLGDHEIGRDYRLQTDERCKVAIYAQGFSQASHGLSDTLLSVLPVRAEEISGSLYQHLKPGTAARALHEHALAS
binds: [1] | [2] | [3] | [4]

B2: PvdA-eGFP (enzyme, UniProt Q51548 1-443)
chain: B1 chain
binds: [5] | [6]

No constants are given. Whether binding was seen depends on the method and setting. Binding seen in cells or lysates may run through a third protein. Binding can be weak; no strength is given. For part of these data: Sequences can lack the tags named with a protein.
